Our source for the binding values is publication PMC10646984 (Biomacromolecules, 2023).

The chains behind the UniProt entries cited, without tags or fusion partners.
UniProt P17931: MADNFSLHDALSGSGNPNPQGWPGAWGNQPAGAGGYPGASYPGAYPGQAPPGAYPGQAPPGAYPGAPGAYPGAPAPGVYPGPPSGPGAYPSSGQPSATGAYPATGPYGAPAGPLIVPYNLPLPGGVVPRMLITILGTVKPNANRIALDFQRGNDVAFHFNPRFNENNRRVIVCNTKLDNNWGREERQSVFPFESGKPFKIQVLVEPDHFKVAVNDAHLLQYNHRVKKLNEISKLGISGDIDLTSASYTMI

The experiment addresses T1, asialofetuin (ASF; a glycoprotein terminated with LacNAc moieties) (UniProt P12763).
T1 sequence (chain, glycoprotein terminated with LacNAc moieties (desialylated glycans)): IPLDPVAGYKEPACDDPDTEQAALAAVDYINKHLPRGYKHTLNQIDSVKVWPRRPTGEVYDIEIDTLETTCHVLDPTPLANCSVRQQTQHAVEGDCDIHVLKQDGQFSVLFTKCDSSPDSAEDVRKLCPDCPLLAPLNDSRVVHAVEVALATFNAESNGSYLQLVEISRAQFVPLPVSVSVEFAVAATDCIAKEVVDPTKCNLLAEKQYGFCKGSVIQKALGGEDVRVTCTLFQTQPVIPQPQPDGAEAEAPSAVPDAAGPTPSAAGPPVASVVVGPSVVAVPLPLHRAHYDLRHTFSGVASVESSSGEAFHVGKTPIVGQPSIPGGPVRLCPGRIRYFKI
Briefly: ELISA; competitive: ASF (0.1 μM in PBS) coated on the plate; galectin ([…] Gal-1 and Gal-3, 1 μM Gal-8 and Gal-9) incubated 2 h with serial dilutions of lactose or Lac-CS-DDMs in EPBS with 10% DMSO; residual bound galectin detected with anti-His antibody-HRP; both purified. For orientation: An ELISA detects its analyte on a solid surface through an enzyme-linked reagent.

No constants are given. Whether binding was seen depends on the method and setting. Some binding calls cover weakened binding; strength is not graded here.

For “Recombinant human galectin-3 (Gal-3), N-terminal His-tagged (from UniProt P17931 1-250)”, the binding entry was “binds”.

B1: Recombinant human galectin-8 (Gal-8) with a full-length peptide linker of 34 aa, N-terminal His-tagged (natural protein, UniProt O00214 1-317, looked up)
chain: MMLSLNNLQNIIYNPVIPFVGTIPDQLDPGTLIVIRGHVPSDADRFQVDLQNGSSMKPRADVAFHFNPRFKRAGCIVCNTLINEKWGREEITYDTPFKREKSFEIVIMVLKDKFQVAVNGKHTLLYGHRIGPEKIDTLGIYGKVNIHSIGFSFSSDLQSTQASSLELTEISRENVPKSGTPQLRLPFAARLNTPMGPGRTVVVKGEVNANAKSFNVDLLAGKSKDIALHLNPRLNIKAFVRNSFLQESWGEEERNITSFPFSPGMYFEMIIYCDVREFKVAVNGVHSLEYKHRFKELSSIDTLEINGDIHLLEVRSW
notes: galectin-8 (tandem repeat), human; contains a full-length peptide linker of 34 aa (3717 Da); ca. 36 kDa; cloned in pET-Duet1 (AscI/NotI); plasmid a gift from Prof; L. Elling; source: E. coli Rosetta 2(DE3)pLysS, purified (Ni-NTA); not shown: His tag, N-terminal, kept
On to B1, for which the binding entry is given as “binds”.
